Values from PubChem BioAssay AID1159584 (Peter MacCallum Cancer Centre, 2016)
Aim: 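Knock-downs that harm CDH1-null cells more than parental MCF10A cells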 (primary screen). System: human MCF10A breast epithelial cells, parental and CDH1-null. Reagent: siRNA against human genes. Detection: 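ATP luminescence (CellTiter-Glo) viability per line relative to mean mock wells over all plates, and the ratio of CDH1-null to parental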. Scale: CDH1-null / parental viability ratio: higher = CDH1-null cells survive relatively better than parental.
Here is a random part of about 18,000 deposited reagents. Further read-outs or replicates are left out here. Not given: the amount of reagent, the time to read-out.

target gene	CDH1-null / parental viability ratio
CXCR2	0.89
AMBP	1.14
IVNS1ABP	0.95
FIBCD1	1.11
CT55	0.85
SPTSSB	0.94
ZNF225	0.6
DDX43	0.79
GAPDHS	1.16
NCOA4	0.8
DHX40	0.85
PGBD1	1.06
DDX55	1.07
KRTAP13-2	0.86
RUFY4	0.88
OLA1	1
RPS16	1.55
ITPKC	0.99
AQP5	1.04
PSORS1C1	1.17
COMMD3	0.85
COPS6	0.74
H1-0	0.82
ARHGEF5	0.76
RSRP1	1.1
ID2	0.99
AP3B2	1.3
ZDHHC15	0.88
SRGN	0.6
UTP6	0.82
ACADSB	0.81
GSDME	1.33
SLC1A2	0.96
GPR156	1.33
ADGRB1	1.25
HTRA2	1.18
CA3	1.16
HACD2	1.28
CAAP1	0.91
HEXA	0.91
NEFL	1.05
STARD13	1.1
OR2AK2	0.97
METTL22	1.02
B3GNT9	1.02
HNRNPH3	0.95
CAMK2G	1.07
SRC	0.92
RNF26	0.81
KCNJ10	1.32
UBE3D	1.15
DNAJC7	0.95
SPACA4	1.2
CMYA5	0.93
BTN2A3P	1.46
CACNA1B	1.26
ATXN2	1.15
CLOCK	0.94
ABCD3	1.24
CLEC4C	0.93
DDC	0.97
SERF1A	0.79
SNAP29	1.12
SCHIP1	0.81
ACTL10	1.31
C2orf42	0.89
RCCD1	0.94
FNDC4	1.43

9 entries from above, set out differently.
{"target gene":"ZNF225","CDH1-null / parental viability ratio":0.6}
{"target gene":"DDX43","CDH1-null / parental viability ratio":0.79}
{"target gene":"GAPDHS","CDH1-null / parental viability ratio":1.16}
{"target gene":"NCOA4","CDH1-null / parental viability ratio":0.8}
{"target gene":"DHX40","CDH1-null / parental viability ratio":0.85}
{"target gene":"PGBD1","CDH1-null / parental viability ratio":1.06}
{"target gene":"DDX55","CDH1-null / parental viability ratio":1.07}
{"target gene":"KRTAP13-2","CDH1-null / parental viability ratio":0.86}
{"target gene":"RUFY4","CDH1-null / parental viability ratio":0.88}
